Test results: patent publication US20240076391A1 (ONCURIOUS, published 2024)
No constants are given. Whether binding was seen depends on the method and setting. Binding can be weak; no strength is given.

Target: Macaca CCR8 (Macaca)
Test: flow cytometry, Macaca CCR8 stable cell line and transiently transfected HEK293 cells

B1: VHH-56 (VHH)
VHH: EVQLVESGGGLVQPGGSLRLSCAASRSIYNVMAMGWYRQAPGKERELVAVVWSSGNTNYADSVKGRFTVSRDNAKNTVYLQMNSLRPEDTAVYYCYSKSLIGTSRYEIWGQGTLVTVSS
notes: Monovalent VHH purified from E. coli periplasm by IMAC; PelB signal peptide is removed on export; not shown: C-terminal FLAG3 and His6 tags
With B1 the binding was “binds”.

B2: VHH-62 (VHH, not shown: small tags and cut ends)
VHH: EVQLVESGGGLVQPGGSLRLSCAASGFSFSSFALSWYRQAPGKERELVARITTTGATNYADSVKGRFTISRDNAKNMGYLQMNSLRPEDTAVYYCNARARLSSVFDYWGQGTLVTVSS
In the case of B2, the binding is reported as “binds”.

B3: VHH-65 (VHH)
VHH: EVQLVESGGGLVQPGGSLRLSCAASGRAFSSYNMGWFRQAPGKERDFVATISSSGTNYANSVKGRFTISRDNAKNTVYLQMNSLRPEDTAVYYCNAKTVTRTGGVITGSRIEYDYWGQGTLVTVSS
notes: Monovalent VHH purified from E. coli periplasm by IMAC; not shown: C-terminal FLAG3 and His6 tags
With B3 the binding was “binds”.

B4: VHH-74 (VHH)
VHH: EVQLVESGGGLVQPGGSLRLSCAASGSTFSIKSIGWYRQAPGKQRELVADITRGAGINYADSVKGRFTISRDNTKNTMYLQMNSLRPEDTAVYYCNVKTIKRTGGIMTGSKIEYDYWGQGTLVTVSS
notes: as for B3
For B4, the binding was “binds”.
